# For at least one compound, name, drawing or mass did not settle the structure.
# Target: T1, pNKCC1 and tNKCC1 proteins (Mus musculus, UniProt P55012)
# T1 construct: cell lysates were harvested for immunoblotting of pNKCC1 and tNKCC1 proteins; endogenous in cells; host or cells: GL26 and SB28-GFP mouse glioma cells
# T1 sequence (P55012 1-1205): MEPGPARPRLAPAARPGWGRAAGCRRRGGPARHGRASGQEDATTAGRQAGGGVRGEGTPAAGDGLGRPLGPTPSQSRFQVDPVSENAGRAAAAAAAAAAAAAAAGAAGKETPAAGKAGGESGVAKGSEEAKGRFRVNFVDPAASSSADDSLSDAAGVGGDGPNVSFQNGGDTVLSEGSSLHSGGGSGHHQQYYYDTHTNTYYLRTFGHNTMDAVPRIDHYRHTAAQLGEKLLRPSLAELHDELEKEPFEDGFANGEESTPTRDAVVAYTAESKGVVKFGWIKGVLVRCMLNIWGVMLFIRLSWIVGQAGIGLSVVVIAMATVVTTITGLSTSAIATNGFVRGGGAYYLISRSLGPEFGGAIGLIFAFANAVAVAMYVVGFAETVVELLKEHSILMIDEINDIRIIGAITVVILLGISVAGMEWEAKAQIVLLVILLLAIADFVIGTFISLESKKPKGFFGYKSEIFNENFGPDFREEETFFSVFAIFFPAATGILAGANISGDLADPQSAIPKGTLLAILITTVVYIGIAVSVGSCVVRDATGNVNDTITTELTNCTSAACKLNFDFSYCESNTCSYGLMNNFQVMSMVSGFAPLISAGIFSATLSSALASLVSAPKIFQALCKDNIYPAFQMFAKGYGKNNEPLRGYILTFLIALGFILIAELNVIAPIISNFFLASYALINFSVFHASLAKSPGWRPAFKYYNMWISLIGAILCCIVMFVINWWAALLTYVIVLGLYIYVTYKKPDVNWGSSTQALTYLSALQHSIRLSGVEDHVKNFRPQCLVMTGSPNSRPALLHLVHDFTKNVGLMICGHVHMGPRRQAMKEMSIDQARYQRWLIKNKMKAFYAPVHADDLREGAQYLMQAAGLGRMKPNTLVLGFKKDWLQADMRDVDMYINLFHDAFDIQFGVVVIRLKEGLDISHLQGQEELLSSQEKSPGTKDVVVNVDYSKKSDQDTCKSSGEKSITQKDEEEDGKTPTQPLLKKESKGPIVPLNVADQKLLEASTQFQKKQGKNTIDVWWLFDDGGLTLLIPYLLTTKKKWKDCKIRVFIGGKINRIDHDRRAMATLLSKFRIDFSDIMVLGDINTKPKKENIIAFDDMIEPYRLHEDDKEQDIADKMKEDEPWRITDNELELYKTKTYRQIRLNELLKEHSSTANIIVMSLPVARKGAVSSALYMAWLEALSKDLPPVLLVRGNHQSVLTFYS
# Test: Immunoblotting of pNKCC1 and tNKCC1
# Format: cell-based
# Conditions: GL26 and SB28-GFP cells, 6 h; BMT 10 μM, STS66 10 μM, TMZ 100 μM or combined
# Description: FIGS. 6A-6B: GL26 and SB28-GFP cells were exposed to BMT (10 μM), STS66 (10 μM), TMZ (100 μM) or combined for 6 h and cell lysates were harvested for immunoblotting of pNKCC1 and tNKCC1 proteins. Data are means±SEM from six independent experiments. *P<0.05, **P<0.01, ***P<0.001.
# GL26 and SB28-GFP cells were washed with ice-cold PBS and incubated in RIPA buffer containing 1 pill of phosSTOP and 2 mM protease inhibitors as described before (Algharabli et al. 2012). Cells were lysed by sonication at 4° C. Protein content of the cellular lysate was determined with BCA Protein Assay Kit. Samples and sample buffer (Thermo Scientific, Rockford, IL, USA) were boiled at 95° C. for 5 min. The samples were then electrophoretically separated on 10% SDS gels. After transferring to PVDF membranes, the blots were blocked in 10% nonfat dry milk in TBS-T (Tris-buffered saline, 0.05% Tween-20) for 1 hour at room temperature and then incubated with appropriate primary antibodies (pNKCC1, 1:300 and tNKCC1, 1:3000) at 4° C. overnight. After rinsing with TBS-T, the blots were incubated with horseradish peroxidase-conjugated secondary IgG (1:2000) for 1 hr at RT. Bound antibody was visualized with an enhanced chemiluminescence assay. Protein band signal intensities were analyzed using ImageJ and normalized to α-tubulin expression.
smiles,measurement,value
"Cn1nnc2c(C(N)=O)ncn2c1=O [TMZ, Temozolomide]",pNKCC1 and tNKCC1 expression,did not trigger the NKCC1 upregulation

# Source: US20260132103A1, “Bumetanide Derivatives for the Therapy of Stroke and Other Neurological Diseases/Disorders Involving NKCCs” (University of Pittsburgh - Of the Commonwealth System of …, priority 2018, published 2026)
